No constants are given. Whether binding was seen depends on the method and setting. In cells and extracts the contact can be indirect. A result given as binding can be weak or reduced; the word gives no strength. Sequences can lack the tags named with a protein.

The target in this assay is T1, Flag-tagged CDKL5 (107 kDa splice variant) (UniProt O76039).
T1 sequence: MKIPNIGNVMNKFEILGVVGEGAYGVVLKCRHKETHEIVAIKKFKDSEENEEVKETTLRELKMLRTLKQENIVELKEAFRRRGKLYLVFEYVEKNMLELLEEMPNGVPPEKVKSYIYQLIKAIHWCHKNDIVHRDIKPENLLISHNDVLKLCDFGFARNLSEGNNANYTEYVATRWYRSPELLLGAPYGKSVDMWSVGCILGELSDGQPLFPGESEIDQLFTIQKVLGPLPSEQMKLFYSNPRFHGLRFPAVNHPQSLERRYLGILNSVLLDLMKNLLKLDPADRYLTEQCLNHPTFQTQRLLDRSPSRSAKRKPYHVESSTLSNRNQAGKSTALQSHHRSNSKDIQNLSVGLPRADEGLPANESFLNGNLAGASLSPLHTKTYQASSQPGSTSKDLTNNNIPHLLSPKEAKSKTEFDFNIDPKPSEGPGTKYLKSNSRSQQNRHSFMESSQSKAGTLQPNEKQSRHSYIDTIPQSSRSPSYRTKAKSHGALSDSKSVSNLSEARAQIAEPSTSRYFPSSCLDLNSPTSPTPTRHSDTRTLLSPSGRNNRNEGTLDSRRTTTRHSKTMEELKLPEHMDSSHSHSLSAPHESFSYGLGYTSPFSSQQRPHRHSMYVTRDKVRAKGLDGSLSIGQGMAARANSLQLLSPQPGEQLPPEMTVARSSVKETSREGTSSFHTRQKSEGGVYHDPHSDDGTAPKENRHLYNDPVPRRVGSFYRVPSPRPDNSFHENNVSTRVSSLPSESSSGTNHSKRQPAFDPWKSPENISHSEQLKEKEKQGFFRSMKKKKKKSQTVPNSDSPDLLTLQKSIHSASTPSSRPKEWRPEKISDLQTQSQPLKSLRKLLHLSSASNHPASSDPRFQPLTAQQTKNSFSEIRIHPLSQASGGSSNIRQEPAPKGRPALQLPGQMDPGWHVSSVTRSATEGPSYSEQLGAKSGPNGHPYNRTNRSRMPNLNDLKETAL
The assay can be described thus: co-IP; CDKL5 immunoprecipitated with 1 µg monoclonal anti-CDKL5 from 400 µg of HEK293T cells expressing Flag-CDKL5 and Myc-CB2; lysis buffer 50 mM Tris-HCl pH 7.4, 150 mM NaCl, 1 mM EDTA, 1 mM EGTA, 1% Triton X-100; overnight at 4 °C; protein-G agarose; western blotting with anti-CDKL5 and anti-CB.

Turning to Myc-tagged collybistin CB2 isoform, the binding result was “binds”.

The record behind these values is article PMC9820583.
